Assay results taken from the supplement of paper PMC3334620.
The full ranking holds about 33,000 sequences; the median of “E-score (-0.5 to 0.5)” is about -0.0034, and the highest 2% start at about 0.25. The list shows a part of the results.

target: T1, Yap3 (UniProt P38749); test: PBM E-score (8-mer binding enrichment) (E-score (-0.5 to 0.5)); higher = stronger / more preferred TF binding; settings: protein concentration: 100 nM; construct: GST-full length
T1 sequence: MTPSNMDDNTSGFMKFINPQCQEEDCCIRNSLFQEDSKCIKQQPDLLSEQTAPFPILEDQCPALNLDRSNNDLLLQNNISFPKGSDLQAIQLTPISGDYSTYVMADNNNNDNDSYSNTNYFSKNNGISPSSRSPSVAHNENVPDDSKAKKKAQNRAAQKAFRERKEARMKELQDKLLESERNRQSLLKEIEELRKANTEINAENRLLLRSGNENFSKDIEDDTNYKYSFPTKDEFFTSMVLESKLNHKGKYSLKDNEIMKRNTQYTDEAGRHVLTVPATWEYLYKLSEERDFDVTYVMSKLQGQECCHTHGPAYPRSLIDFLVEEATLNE
Outline: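 Detection of bound protein used fluorescent anti-GST, with scans normalised by masliner. The proteins were GST-tagged yeast transcription factors applied at about 100-200 nM to universal all-10-mer Agilent arrays made double-stranded by primer extension. Each ungapped eight-base word, pooled with its reverse complement, was scored with an E-score from the Universal PBM Analysis Suite.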

Row | Sequence | PBM E-score
1 | GTCTTGGA | -0.0918
2 | AATAGAGC | 0.0845
3 | GGCCCGGA | -0.188
4 | CCGCGCCC | -0.218
5 | AAGAGTAC | 0.0316
6 | TCTCAAGA | -0.0924
7 | CAAAATCA | 0.225
8 | CGAGGTCA | -0.0442
9 | GCTCCCGA | -0.0926
10 | GCTGCTCC | -0.307
11 | AACGTAGC | 0.0205
12 | ATGACTTA | 0.119
13 | CACGGAAG | -0.15
14 | GAGCGCGA | 0.197
15 | ACATGGGC | 0.00331
16 | CGCCGTCA | -0.0719
17 | TCCGCTAA | -0.0432
18 | ACCCTTCT | -0.142
19 | CGCTGTAC | 0.0676
20 | TTACACAA | 0.248
21 | TCGCTGCA | -0.0483
22 | CTGGATTA | 0.0684
23 | ATACTCGA | -0.0822
24 | CGCGCGCG | 0.0113
25 | CTGTAGAC | -0.0617

Row | Sequence | PBM E-score
26 | AAGACCGC | -0.181
27 | CCACCTAG | -0.209
28 | CATCATCG | 0.0276
29 | TCCGGAGA | -0.179
30 | ACCAACTA | 0.0271
31 | AGGTCCTC | -0.0704
32 | AGCGTGAA | -0.0399
33 | TAGGCAGA | 0.0268
34 | GCTGGGCA | -0.229
35 | ATCTGACC | -0.0106
36 | GAGTGATC | 0.0808
37 | ATTTACGA | 0.127
38 | ATTTCCAG | 0.131
39 | CCCATATC | 0.065
40 | CCCTTAAA | -0.0434
41 | CGCAACAA | 0.132
42 | GCTTCTAA | -0.0272
43 | CACATAGG | -0.0256
44 | CAGGTTGA | -0.222
45 | CCTCCATC | -0.239
46 | AAAATAAG | 0.271
47 | ATTGCTTC | -0.0347
48 | AAAACAAC | 0.00549
49 | ACATTTCT | 0.119
50 | AGGGCAAC | 0.0445

Row | Sequence | PBM E-score
51 | CACTCAAG | -0.209
52 | ATCGCGGC | 0.0788
53 | CCATGCAG | -0.157
54 | AACCGGCA | -0.122
55 | CGAACGCA | 0.233
56 | GCGCCTCA | 0.00501
57 | GCTTAGAA | 0.0422
58 | CTGTAGCA | -0.115
59 | AATCCATC | 0.0807
60 | GAGGCGAC | -0.134
61 | AGCAACTA | 0.143
62 | CCTTAGTC | -0.046
63 | CAAAGTTA | 0.156
64 | CAAGCGAA | 0.0562
65 | ATTTGGGG | -0.0596
66 | TCGGCCCA | -0.075
67 | GGCTCGGA | -0.319
68 | ATCTTAAT | 0.0977
69 | CTGGTTAC | -0.139
70 | TCGTTACA | 0.118
71 | AAGGCCGG | -0.131
72 | GGTAGGGA | -0.114
73 | ACTTACAT | 0.122
74 | CCCGCTAC | -0.0736
75 | AGAAACAC | 0.0529

Row | Sequence | PBM E-score
76 | CACGTAAA | -0.0521
77 | CCTCTGTC | -0.0561
78 | ACCATAAC | 0.0816
79 | AAAAGGAT | 0.103
80 | GACGTCAC | -0.0471
81 | CGCCCCAA | 0.0626
82 | GCTGTCCC | -0.27
83 | CGTTTCTC | -0.0335
84 | ACTGGCTA | -0.077
85 | CTCAGTAC | 0.0992
86 | AGCGTGCC | -0.187
87 | GAGTTCCA | 0.0016
88 | CAACAAGA | 0.067
89 | AACTCCAA | 0.0543
90 | CATAAAAG | 0.0938
91 | CCACCTAC | -0.0723
92 | AGGACCAA | 0.0138
93 | AGATAGGA | -0.165
94 | ACATCGAA | 0.125
95 | AGGAGTAG | -0.0276
96 | AGCAGCAA | 0.0125
97 | ACAGGGGT | -0.169
98 | CGGAGTGC | -0.11
99 | AGCGTTTG | -0.186
100 | GGGCGGGA | 0.0646

Nos. 63 through 64 of the list above:
Row | Sequence | PBM E-score
63 | CAAAGTTA | 0.156
64 | CAAGCGAA | 0.0562

Next entries

Row | Sequence | PBM E-score
101 | ACCAACAC | 0.156
102 | CCGTCCAA | -0.0198
103 | ACGACCGT | -0.111
104 | GCAGGCAC | -0.279
105 | AGGATCGC | -0.0222
106 | CGAGTACA | 0.0861
107 | CTAAGAAA | 0.165
108 | ACCCTTAA | 0.0439
109 | ACTACCCT | -0.115
110 | GACTCCAC | -0.309
111 | AGCTGCAC | -0.0225
112 | ACTCTTTG | -0.0249
113 | CCAACCAC | 0.0919
114 | AACTCACA | 0.132
115 | TCGGGCCA | -0.132
116 | AGCGCACA | 0.0378
117 | GTAATCAC | 0.148
118 | AACCGTAC | -0.127
119 | CCCCGTTC | -0.264
120 | ACGTTAAT | 0.178
121 | CACCGAAC | -0.131
122 | CCGATCAG | -0.00295
123 | TACCCAGA | 0.0688
124 | CACGCGTG | 0.0849
125 | ATCGGGAA | 0.0249

Row | Sequence | PBM E-score
126 | CGTAGTTA | 0.0738
127 | CCGCTCCA | -0.282
128 | ACCCACCG | -0.00295
129 | GATAAGCC | -0.133
130 | CATATTAG | 0.184
131 | AGGCTCCA | -0.127
132 | CCCGTAAA | 0.0336
133 | ACACGGAC | -0.0491
134 | CACAATTA | 0.106
135 | GTATGTAA | 0.151
136 | GACCGGTC | -0.175
137 | GACCTTCC | -0.156
138 | GAAGGGGA | -0.233
139 | ATTACTAG | -0.0453
140 | ATTCCTGG | -9e-05
141 | GCGGCCAA | -0.0885
142 | GGCTTGTA | -0.0856
143 | ACATGGGA | 0.154
144 | TATACGGA | 0.0234
145 | CCCTTTAA | -0.0346
146 | AGACAGCC | -0.152
147 | CCACCGTC | -0.265
148 | TATGCTAA | 0.0405
149 | AAGTTCTC | 0.0195
150 | AGTAAGCG | 0.101

Exported field by field: part of the list above.
ATCGCGGC
  PBM E-score: 0.0788
CCATGCAG
  PBM E-score: -0.157
AACCGGCA
  PBM E-score: -0.122
CGAACGCA
  PBM E-score: 0.233

Additional results

Row | Sequence | PBM E-score
151 | CGGATCAC | 0.0833
152 | GCCTTACA | -0.231
153 | ATGCCGTA | 0.101
154 | CGCATTGC | 0.0586
155 | CACGCCTG | -0.281
156 | AAGTACCG | 0.0832
157 | CTGAACGA | -0.0456
158 | ACATCGTG | -0.00683
159 | AAGGATTG | 0.044
160 | AGCACCAA | 0.0943
161 | GTCACATA | -0.0505
162 | AACCGATC | -0.0797
163 | CACACACC | -0.0904
164 | CTCCGGCC | -0.343
165 | CATCTCAC | -0.0458
166 | CTCTCTCA | -0.0104
167 | AAGTTTGT | 0.0855
168 | CCATCCGC | -0.0491
169 | AAAGAGGC | -0.0407
170 | ATGCAGGC | -0.0848
171 | CGATCCAC | -0.0503
172 | CCTCAAGG | -0.145
173 | TGGCGTAA | -0.0144
174 | AGGCGTGA | -0.218
175 | CAAGGCAG | -0.0175

Row | Sequence | PBM E-score
176 | GAGCCGAA | -0.0315
177 | ATTCCACC | 0.102
178 | ACTGACAC | 0.0624
179 | AAGGGAAT | 0.0766
180 | GCCCCCAC | -0.379
181 | CTCCTCTC | -0.269
182 | ATCGAAGA | 0.154
183 | ACGAGGAC | 0.0227
184 | CGCACTAA | 0.166
185 | CGTATCGC | 0.0192
186 | TTCCACAA | 0.192
187 | TACAGCCA | -0.0886
188 | CGTAATAA | 0.29
189 | AGCTACAC | -0.0326
190 | CTTCTCGC | 0.143
191 | CGGCTGAC | -0.056
192 | CGTTTCTA | 0.148
193 | ATTTCGCC | 0.225
194 | GATACCTA | 0.232
195 | ATCATGAG | 0.0895
196 | GATACAGA | 0.111
197 | ACGAATCG | 0.141
198 | CGGTTGCA | -0.17
199 | CGGAGCCG | -0.253
200 | AGCGAACG | -0.158

Pulled one by one from above:
Row | Sequence | PBM E-score
15 | ACATGGGC | 0.00331
59 | AATCCATC | 0.0807

Following part:

Row | Sequence | PBM E-score
201 | CTTAGGAC | -0.0958
202 | CCCACGAA | -0.00731
203 | TCCAGTAA | 0.0121
204 | TACTAGCA | 0.102
205 | AGTGTTTG | 0.145
206 | AATCCTGG | -0.00906
207 | GCTCGCGA | 0.109
208 | GATAGGTA | 0.18
209 | TCGATCGA | 0.155
210 | ACATTTAG | -0.0147
211 | CGCCGTGC | -0.141
212 | CGCTTAGA | -0.115
213 | GTTCTCTA | 0.1
214 | GAAGGTGC | -0.125
215 | CATGCCAG | -0.0993
216 | ACGATGTC | -0.136
217 | AGCGTTAT | -0.0355
218 | CCAAGATA | -0.018
219 | AACTGGCC | -0.0213
